Experimental data taken from PubChem BioAssay AID485314 (National Center for Advancing Translational Sciences (NCATS), 2010).
In all, about 340,000 compounds went through this assay and about 4,500 (1.3%) were called active. Inconclusive results, whose numbers are uncertain, are shown with a selection of clear calls. The call rests on the fitted dose curve; in most records, active means well fitted inhibition curve with a large enough effect; inconclusive means small, poorly fitted or top-dose-only effect, or another doubt; inactive means no such curve, though single readings can be large or run the other way. A potency beside an inconclusive call is a rough fit, not a confirmed value.

Molecular target: DNA polymerase beta (Homo sapiens) (UniProt P06746)
Test: qHTS Assay for Inhibitors of DNA Polymerase Beta
Conditions: Pol beta primer extension/strand displacement, fluorescence kinetic; activity change, negative = inhibition: at 114 µM (top of the series)
Outline: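 Preincubation: enzyme (10 nM) with compound, 15 min, RT. Reaction: substrate added to 50 nM final. Reads: 0 and 10 min. Analysis: normalized, Hill fit.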
On the % scale 0 is the no-effect control and ±100 the full control effect; potency means the concentration at half of the fitted maximal effect.

| SMILES | Potency | activity change, negative = inhibition |
| --- | --- | --- |
| Nc1ccc(Br)c2c1C(=O)c1ccccc1C2=O | inconclusive: 89.1 µM [inhibitor, single point] |  |
| CC(C)CNC(=O)c1cccc(NC(=O)c2ccc3c(c2)C(=O)N(C)C3=O)c1 | inconclusive: 89.1 µM [inhibitor, single point] |  |
| COc1ccc(CCNC(=O)C(=O)NCC2OCCN2S(=O)(=O)c2ccc(Cl)cc2)cc1OC (stereo not given) | inconclusive: 100 µM [inhibitor, single point] |  |
| O=C(Nc1ccc2nc(-c3ccco3)c(-c3ccco3)nc2c1)N1CCCCCC1 | active: 2.24 µM |  |
| COC(=O)c1sccc1NC(=O)Nc1ccc(C)cc1 | inactive |  |
| c1cnc(N2CCN(Cc3c[nH]c4ccccc34)CC2)nc1 | inconclusive: 35.5 µM [inhibitor, single point] |  |
| CCc1ccc(NC(=O)c2cnc3scc(C)n3c2=O)cc1 | inconclusive: 3.98 µM [inhibitor, single point] |  |
| O=C(O)C/C(=C\c1cccc(NC(=O)c2ccccc2Cl)c1)c1nc2ccccc2s1 |  | inconclusive: -97.5% [inhibitor] |
| Cc1cccc(C)c1N(CC(=O)N1CCN(c2ccccc2F)CC1)S(C)(=O)=O | inconclusive: 79.4 µM [inhibitor, single point] |  |
| CN(C)S(=O)(=O)c1cccc(-c2nn(-c3ccccc3)cc2/C=C(\C#N)c2nc3ccccc3[nH]2)c1 | inactive |  |
| O=C(O)CCCC(=O)Nc1ccc(-n2ccc(C(F)(F)F)n2)cc1 | inconclusive: 89.1 µM [inhibitor, single point] |  |
| Cc1ccc2c(c1)c(=O)c(C(=O)c1ccncc1)cn2CC(=O)Nc1ccccc1Cl | inconclusive: 28.2 µM [inhibitor, full curve, poor fit] |  |
| CN(C)c1ccc(/C=N/Nc2ccc(-n3ccnc3)nn2)cc1 | inconclusive: 89.1 µM [inhibitor, single point] |  |
| COc1cc(/C=C2\SC(=Nc3ccc(Cl)c(C(=O)O)c3)NC2=O)c(Br)c(Br)c1O | active: 8.91 µM |  |
| O=C(N/N=C/c1ccc(OC(=O)c2ccc3c(c2)OCO3)cc1)c1cncc(Br)c1 | inconclusive: 1.41 µM [inhibitor, full curve, poor fit] |  |
| CN(Cc1ccccc1)c1nc2nonc2nc1N1CCCC(CN2CCCC2=O)C1 (stereo not given) | inconclusive: 100 µM [inhibitor, single point] |  |
| CCC(C(=O)Nc1cccc(C(F)(F)F)c1)c1ccccc1 (stereo not given) | inconclusive: 0.0891 µM [inhibitor, full curve, poor fit] |  |
| O=C(O)CCn1cnc2onc(-c3ccccc3Cl)c2c1=O | active: 22.4 µM |  |
| COc1cc(/C=C2\C(=N)N3N=CSC3=NC2=O)cc(Br)c1OC(=O)c1ccco1 | inconclusive: 89.1 µM [inhibitor, single point] |  |
| CCCc1cc(=O)oc2cc3occ(C)c3cc12 | inconclusive: 89.1 µM [inhibitor, single point] |  |
| O=C(NCc1ccc(Cl)cc1)c1ccc2c(c1)NC(=O)C(CS(=O)(=O)Cc1ccccc1Cl)N2 (stereo not given) | inconclusive: 79.4 µM [inhibitor, single point] |  |
| CCN1CCN(Cc2ccc(NC(=O)Nc3ccccc3)cc2)CC1 | inconclusive: 79.4 µM [inhibitor, single point] |  |
| Cc1cc(C)n(-c2nnc(Cl)c3ccccc23)n1 | inconclusive: 0.141 µM [inhibitor, full curve, poor fit] |  |
| Cc1ccc(-n2nnnc2CNC(=O)c2ccccc2F)cc1C | inactive |  |

| SMILES | Potency | activity change, negative = inhibition |
| --- | --- | --- |
| Cc1cnc(C(=O)NC2CCSc3ccccc32)cn1 (stereo not given) | inconclusive: 7.94 µM [inhibitor, full curve, poor fit] |  |
| O=C(CSc1cccc2cccnc12)NCc1ccco1 | inactive |  |
| COc1ccc(C)cc1NC(=O)CCn1nc(C)cc1C | inconclusive: 44.7 µM [inhibitor, partial curve] |  |
| Cc1c(C(=O)N2CCN(c3ccccn3)CC2)oc2ccccc12 | inactive |  |
| CCc1ccccc1NC(=O)COc1cccc(-n2cnnn2)c1 | inactive |  |
| CS(=O)(=O)c1ccc2nc(NC(=O)c3ccc(Cn4cc(Br)cn4)o3)sc2c1 | inconclusive: 25.1 µM [inhibitor, full curve, poor fit] |  |
| Cc1c(Cl)cccc1NC(=S)N1CCN(C(=O)C2CCCO2)CC1 (stereo not given) | inactive |  |
| O=C1Nc2ccccc2C(=O)N2C[C@@H](O)C[C@H]12 | inactive |  |
| O=C(CSc1ncnc2c1oc1ccccc12)NCc1ccco1 | active: 31.6 µM |  |
| Cc1ccc(C(=O)NCC(=O)OCC(=O)Nc2ccccc2C#N)s1 | inactive |  |
| N/C(=N\OC(=O)c1cccc(Cl)c1)c1ccccn1 | inactive |  |
| N#CC1(NC(=O)COc2ccc3oc4ccccc4c3c2)CCCCC1 | inconclusive: 2.24 µM [inhibitor, full curve, poor fit] |  |
| CN(C(=O)CSc1nc2ccccc2n1Cc1cccc(C(F)(F)F)c1)c1ccccc1 | inconclusive: 89.1 µM [inhibitor, single point] |  |
| CCOc1ccc(-n2c(=O)c3c(C)c(C)sc3n(Cc3cc(=O)n4cc(Cl)ccc4n3)c2=O)cc1 | inactive |  |
| CCOC(=O)c1nn(-c2cccc(C)c2)cc1C(=O)c1ccccc1 | inconclusive: 31.6 µM [inhibitor, single point] |  |
| O=C(NCCc1csc(-c2ccc(F)cc2)n1)c1c(F)cccc1Cl | inconclusive: 79.4 µM [inhibitor, single point] |  |
| O=C(COC(=O)c1cc(-c2ccccc2)nc2c(Cl)cccc12)c1ccc(F)cc1 | inactive |  |
| COc1ccc(-c2cc(C(=O)Nc3ccc(C(N)=O)cc3)c3ccccc3n2)cc1OC | inconclusive: 79.4 µM [inhibitor, single point] |  |
| CC[C@H](CO)Nc1nc(Nc2cccc(Cl)c2)c2ncn(C(C)C)c2n1 | inconclusive: 39.8 µM [inhibitor, single point] |  |
| Cc1ccc(S(=O)(=O)Cc2ccc(C(=O)N3CCN(Cc4ccccc4)CC3)o2)cc1 | active: 25.1 µM |  |
| O=C(c1ccc(S(=O)(=O)Cc2cc(F)ccc2F)c([N+](=O)[O-])c1)N1CCCCC1 | inconclusive: 7.08 µM [inhibitor, full curve, poor fit] |  |
| CCOc1ccc(C2=CC(c3cc(Br)ccc3F)n3ncnc3N2)cc1Cl (stereo not given) | inconclusive: 0.0708 µM [inhibitor, full curve, poor fit] |  |
| Cc1cccc(Cn2c(=O)oc3ccc(C)cc32)c1 | inconclusive: 89.1 µM [inhibitor, single point] |  |
| CN1C(C(=O)NCC2CC2)CC2Cn3c(nc4cc5ccccc5cc43)C21 (stereo not given) |  | inconclusive: -87.7% [inhibitor] |

An excerpt from above in order of length of the SMILES, rising.

| SMILES | Potency | activity change, negative = inhibition |
| --- | --- | --- |
| O=C(O)CCn1cnc2onc(-c3ccccc3Cl)c2c1=O | active: 22.4 µM |  |
| N#CC1(NC(=O)COc2ccc3oc4ccccc4c3c2)CCCCC1 | inconclusive: 2.24 µM [inhibitor, full curve, poor fit] |  |
| Cc1c(Cl)cccc1NC(=S)N1CCN(C(=O)C2CCCO2)CC1 (stereo not given) | inactive |  |
| O=C(NCCc1csc(-c2ccc(F)cc2)n1)c1c(F)cccc1Cl | inconclusive: 79.4 µM [inhibitor, single point] |  |

(listing goes on)

| SMILES | Potency | activity change, negative = inhibition |
| --- | --- | --- |
| c1ccc(Cn2c(-c3ccco3)nc3nc4ccccc4nc32)cc1 | inconclusive: 50.1 µM [inhibitor, partial curve] |  |
| Cc1ccc(NC(=O)Cc2coc3c(C)c(C)ccc23)cc1Cl | inconclusive: 1.58 µM [inhibitor, full curve, poor fit] |  |
| Cc1c(C(=O)N2CCCC2)sc(NC(=O)c2ccco2)c1C#N | inconclusive: 89.1 µM [inhibitor, single point] |  |
| COc1ccccc1C(=O)Nc1nc2nc(C)c(Cc3ccccc3)c(=O)n2[nH]1 | inactive |  |
| Cc1cc(/C=N/NC(=O)c2cccc(N(C)C)c2)c(C)n1-c1cc(C(=O)O)cc(C(=O)O)c1 | active: 17.8 µM |  |
| COc1ccccc1NC(=O)N1CCN(CCc2ccccc2)CC1 | inactive |  |
| CSCCC(NC(=O)c1ccco1)C(=O)OCC(=O)Nc1ncc(Cl)c(C)c1Cl (stereo not given) | inactive |  |
| Cc1nn(-c2cc(N3CCNCC3)ccc2[N+](=O)[O-])c(=O)c2ccccc12 | inconclusive: 20 µM [inhibitor, partial curve, poor fit] |  |
| Cc1nn(CCCC(=O)Nc2cccc(F)c2)c(=O)c2c1sc1ccccc12 | inconclusive: 89.1 µM [inhibitor, single point] |  |
| C=CCNC(=O)c1ccc(C2SCC(=O)N2Cc2ccco2)cc1 (stereo not given) | inconclusive: 20 µM [inhibitor, full curve] |  |
| CCCC(=O)NC(c1ccccc1Cl)c1ccc2cccnc2c1O (stereo not given) | inconclusive: 89.1 µM [inhibitor, single point] |  |
| Cc1ccc(C(=O)N2CCCC(CCC(=O)N3CCN(c4ccccn4)CC3)C2)cc1C (stereo not given) | inactive |  |
| C/C(=C\C(=O)c1ccccc1)NNC(=O)c1ccc(Cl)cc1 | inconclusive: 100 µM [inhibitor, single point] |  |
| CCCc1nccn1S(=O)(=O)c1cc(Br)ccc1OC | inactive |  |
| CCOC(=O)N1CCN(Cc2nc(-c3cccs3)no2)CC1 | inactive |  |
| CN(C)c1ccc(C(=O)OCC(=O)Nc2ccc(S(N)(=O)=O)cc2)cc1 | inconclusive: 50.1 µM [inhibitor, partial curve] |  |
| Fc1ccccc1N1CCN(C(c2ccncc2)c2nnnn2C2CCCC2)CC1 (stereo not given) | inactive |  |
| O=C(CSC1=N/C(=C/c2ccco2)C(=O)N1c1ccc(OC(F)F)cc1)NC1CCS(=O)(=O)C1 (stereo not given) | inconclusive: 25.1 µM [inhibitor, full curve] |  |
| CC[n+]1ccccc1/C=C1\Sc2ccc(C)cc2N1C | active: 70.8 µM |  |
| Nc1cc2ccncc2c2ccccc12 | inconclusive: 31.6 µM [inhibitor, full curve] |  |
| Cc1cccc(OCCSc2nc(-c3cccs3)nc3cc(=O)[nH]n23)c1 | inconclusive: 89.1 µM [inhibitor, single point] |  |
| CCOC(=O)c1c(Nc2cc(C)cc(C)c2)nnc(-c2ccccc2)c1-c1ccccc1 | inconclusive: 0.158 µM [inhibitor, full curve] |  |
